## Library screening results

Amino acid sequences for entries named in this document (tags omitted).
UniProt E9BF75, entry or part of it: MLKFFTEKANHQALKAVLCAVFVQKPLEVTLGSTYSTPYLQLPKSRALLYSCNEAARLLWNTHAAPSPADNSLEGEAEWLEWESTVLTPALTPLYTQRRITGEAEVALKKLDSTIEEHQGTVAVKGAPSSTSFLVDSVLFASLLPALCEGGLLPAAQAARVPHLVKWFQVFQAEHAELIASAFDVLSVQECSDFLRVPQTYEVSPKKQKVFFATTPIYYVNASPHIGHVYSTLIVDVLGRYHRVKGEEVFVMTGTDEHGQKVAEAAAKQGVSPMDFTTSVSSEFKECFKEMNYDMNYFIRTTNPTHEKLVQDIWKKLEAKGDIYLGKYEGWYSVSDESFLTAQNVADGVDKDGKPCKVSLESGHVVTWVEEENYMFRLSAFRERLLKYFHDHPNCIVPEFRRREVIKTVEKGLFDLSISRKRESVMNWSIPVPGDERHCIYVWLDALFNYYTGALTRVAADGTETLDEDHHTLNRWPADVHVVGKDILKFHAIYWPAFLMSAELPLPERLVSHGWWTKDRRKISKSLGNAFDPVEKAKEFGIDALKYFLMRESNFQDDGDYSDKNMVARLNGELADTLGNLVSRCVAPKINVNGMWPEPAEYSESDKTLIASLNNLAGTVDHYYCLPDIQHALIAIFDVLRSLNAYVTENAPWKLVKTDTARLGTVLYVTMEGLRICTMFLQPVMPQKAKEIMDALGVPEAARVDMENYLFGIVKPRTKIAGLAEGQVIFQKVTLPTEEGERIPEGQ

All values are in %.
How 0% and 100% were set is not recorded. Most values in the screen are low, and negative values occur.
The compounds are a random part of those screened.

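Methionyl-tRNA synthetase (putative), Leishmania donovani (UniProt E9BF75). Primary screen of methionyl-tRNA synthetase; the read-out is not stated. The test concentration is not given. Values are per cent inhibition. Size under these conditions: about 68,000 compounds, about 24 of them at 50% or above in at least one test.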

| # | structure | Inhibition |
|---|---|---|
| 1 | `CSCc1noc(CNC(=O)c2cc(C)c(C)[nH]c2=O)n1` | 9.497 |
| 2 | `CCS(=O)(=O)N1C[C@@H](Oc2ccccn2)[C@H]2OCCC[C@H]21` | 2.837 |
| 3 | `Cc1[nH]ccc1C(=O)NCc1ncoc1C` | 11.63 |
| 4 | `Cc1[nH]c2c(F)cccc2c1CC(=O)N1CCC(NS(C)(=O)=O)CC1` | 8.04 |
| 5 | `CCOCCN1CCCC(c2cc(C(N)=O)[nH]n2)C1` (stereo not given) | 11.89 |
| 6 | `CCn1ccc(NC(=O)CCn2nc(C)c3ccccc32)n1` | 16.15 |
| 7 | `CC(C)(C#N)c1ccccc1CN1CCC(N2CCCC2=O)CC1` | 8.871 |
| 8 | `Nc1nc(CCCNC(=O)c2ccc(C3CCCNC3)cc2)cs1` (stereo not given) | 6.977 |
| 9 | `COCCNC(=O)[C@@H]1CCO[C@@H]2CCN(Cc3cnn(C)c3)C[C@@H]21` | 14.7 |
| 10 | `CC(C)c1nccn1-c1cncc(C2CCCN2Cc2cccnc2)n1` (stereo not given) | 9.974 |
| 11 | `O=S(=O)(N1CCOCC1)N1CCCC(c2ccccn2)C1` (stereo not given) | 9.969 |
| 12 | `CCN(Cc1nonc1C)C(=O)c1ccc(Br)o1` | 13.53 |
| 13 | `Cn1nc(C2CCCN(Cc3ccccc3)C2)c2nccnc21` (stereo not given) | 20.34 |
| 14 | `O=C(O)c1cccc(CN2CCCC(c3ccn[nH]3)C2)c1` (stereo not given) | 6.854 |
| 15 | `Cn1cccc1-c1cc(C(=O)NCCc2nnc(N)s2)[nH]n1` | 8.333 |
| 16 | `O=C([C@H]1CCCO1)N1CCC2(CC1)CNCc1ccccc12` | -16.3 |
| 17 | `COCc1c(Cl)cccc1NC(=O)NCc1cccc(N(C)C)n1` | 9.943 |
| 18 | `CCn1cnnc1CNC(=O)N1CCN(c2nccs2)CC1` | 16.81 |
| 19 | `Cc1cc(CN(C)C(=O)CN2CCCC2=O)no1` | 12.9 |
| 20 | `O=C(C1CCOCC1)N1CC[C@H]2[C@H]1CCN2c1nncs1` | 11.23 |
| 21 | `CC(=O)N(Cc1ncc(C(C)C)o1)C1CCN(CC2CCC2)C1` (stereo not given) | 18.73 |
| 22 | `O=C(c1ccco1)N1CC[C@@H](N2CCOCC2)[C@@H]1Cc1ccccc1` | 17.58 |
| 23 | `O=C(NCC1(O)COCCN(Cc2cccc(O)c2)C1)c1cscn1` (stereo not given) | 7.349 |
| 24 | `c1nc(N2CCOCC2)sc1-c1cncn1CCCN1CCCCC1` | 16.86 |
| 25 | `Cn1ncc2c(=O)[nH]c(CN3CCCC3c3ccccc3Cl)nc21` (stereo not given) | 22.91 |
| 26 | `CCC1=N[C@@]2(CC[C@@H]3CN(C(=O)NCc4ccccc4)C[C@@H]32)C(=O)N1` | 12.45 |
| 27 | `Cc1csc(CN(C)C(C)C(=O)N2CCc3ccccc3C2)n1` (stereo not given) | 2.446 |
| 28 | `CSCCCN1CC[C@@]2(O)CCN(c3ncccn3)C[C@H]2C1` | 6.863 |
| 29 | `O=C(CNc1ccc(OC2CCOC2)cc1)NCc1ccc(F)cc1` (stereo not given) | 19.2 |
| 30 | `COc1ccc(OCCNC(=O)CN(C)Cc2nnc(C)n2C)cc1` | 6.504 |
| 31 | `CCCc1nc(N2CCN(CC)CC2)c2c(n1)c(C)nn2CC` | 16.54 |
| 32 | `CN(C)c1nccc(NC(=O)c2ccncc2)n1` | 4.735 |
| 33 | `O=C(NCC1CC1)C1=NOC2(CCN(S(=O)(=O)Cc3ccccc3)C2)C1` (stereo not given) | -2.614 |
| 34 | `CS(=O)(=O)N1CC2(CCN(C(=O)c3csnn3)CC2)c2ccccc21` | 15.13 |
| 35 | `COCCN(C)C1COC2(CCN(Cc3ccccn3)CC2)C1` (stereo not given) | -0.6536 |
| 36 | `Cc1cnn(CCNCc2nnc(C3CC3)o2)c1` | 5.226 |
| 37 | `CNC(=O)NCC(CO)Cc1ccccc1OC(F)(F)F` (stereo not given) | 12.9 |
| 38 | `COCc1noc(-c2ccc(N(C)Cc3ccc(C)o3)nc2)n1` | 21.4 |
| 39 | `CCc1c(C)sc2nc3n(CCN(C)C)nc(SC)n3c(=O)c12` | 14.16 |
| 40 | `CCc1nc(C2CCCN2C(=O)CCc2c(C)noc2Cl)no1` (stereo not given) | 10.34 |
| 41 | `Cc1cc(N(C)C)nc(C2(C)CCCNC2)n1` (stereo not given) | 6.824 |
| 42 | `Cn1cnnc1CCNC(=O)c1ccccc1OC1CCC1` | 2.902 |
| 43 | `CNC(=O)N1CCC2(CC1)CN(C)c1ccc(F)cc12` | 18.12 |
| 44 | `CC(c1cccc(-c2ccc(C(=O)O)cc2Cl)c1)N(C)C` (stereo not given) | 14.78 |
| 45 | `NC(=O)Nc1cc(F)ccc1SCC(F)F` | 20.74 |
| 46 | `COCCC1(CNC(=O)Nc2ccc(-n3cccn3)cc2)CCC1` | 4.218 |
| 47 | `COc1ccc(F)cc1CSCC(=O)N(C)C1CC1` | 7.796 |
| 48 | `O=C(c1ccccn1)C1CCCN(c2nccc(CCC(F)(F)F)n2)C1` (stereo not given) | 21.11 |
| 49 | `CC(C)CNC(=O)CN1C=Nc2ccccc2S1(=O)=O` | 3.937 |
| 50 | `CCOc1nnc(CN(CC)CC(=O)NC(C)C)s1` | 3.152 |
| 51 | `COCCNC(=O)[C@H]1C[C@@H]2CCN(Cc3nccs3)C[C@H]2O1` | 14.92 |
| 52 | `CSCc1ccc(N(C)CC2CCCN(C(C)C)C2)nc1` (stereo not given) | 6.529 |
| 53 | `Cc1ncsc1CCN(C)C(=O)CN1CC2(CCNCC2)OC1=O` | 4.359 |
| 54 | `CCOc1ccnc(N2CCCN(c3nc(C4CC4)ns3)CC2)n1` | -0.3497 |
| 55 | `CNC(=O)N1C[C@H]2C[C@H](C(=O)Nc3ccccc3)[C@@H](C1)O2` | 17.6 |

7 of the entries, repeated:

- COc1ccc(F)cc1CSCC(=O)N(C)C1CC1 : 7.796%
- O=C(CNc1ccc(OC2CCOC2)cc1)NCc1ccc(F)cc1 (stereo not given) : 19.2%
- CSCCCN1CC[C@@]2(O)CCN(c3ncccn3)C[C@H]2C1 : 6.863%
- CCC1=N[C@@]2(CC[C@@H]3CN(C(=O)NCc4ccccc4)C[C@@H]32)C(=O)N1 : 12.45%
- Nc1nc(CCCNC(=O)c2ccc(C3CCCNC3)cc2)cs1 (stereo not given) : 6.977%
- Cc1cnn(CCNCc2nnc(C3CC3)o2)c1 : 5.226%
- NC(=O)Nc1cc(F)ccc1SCC(F)F : 20.74%

Data taken from ChEMBL document CHEMBL3988442, “University of Dundee, Small-Polar-MMV Screening Library” (2021).